Experiments:
[1] = Photoreaction quantum yields and cross sections (HPLC, Reinecke's salt actinometry); format: physicochemical; details: λex 690 nm, 0.1 eq Os, N2
[2] = Photolysis of BODIPY prodrugs in solution, analysed by HPLC; format: physicochemical; details: 690 nm, 100 mW/cm^2, 5 min, 0.1 equiv. Os(bptpy)2^2+, N2-saturated solution
Method: BODIPY photocage was conjugated with the free drug molecules to form photoactivable prodrugs with photolabile linkages, including ester and carbamate. The light illumination was performed with a NIR lamp, of which the parameters were 100 mW/cm^2, 690 nm for 5 min, in a N2-saturated solution containing 0.1 equiv. of Os(bptpy)2^2+ and 1 equiv. of prodrugs. […] In addition, the photocage was conjugated with drug molecules with amine groups to produce prodrugs with photolabile carbamate bonds.
The photolysis efficiency of BODIPY prodrugs were compared in different conditions, including different excitation wavelengths (690 nm or 530 nm), different ratios of Os(bptpy)2^2+, and different oxygen contents. […] The solvent was 88% methanol mixed by 10% dichloromethane and 2% acetone. For the N2-saturated groups, after dissolving the molecules, the solution was degassed with a vacuum pump for 10 min followed by gentle N2 blowing. After light irradiation, the resulted mixtures were refilled to 100 μL with methanol to avoid the error caused by solvent evaporation. The resulted solution was loaded onto the sampler and analyzed by high-performance liquid chromatography. An elution method was used to separate free drug, BODIPY photocage and prodrug on the C18 column.

Quantum yield of drug release Φr [1]: 0.73 ± 0.05%
Quantum yield of prodrug photolysis Φp [1]: 0.85 ± 0.02%
Cross section Φpε(λex) ([1]; ε of Os(bptpy)2·2PF6 at 688 nm): 227.15 ± 4.42 M⁻¹ cm⁻¹
Cross section Φrε(λex) ([1]; ε of Os(bptpy)2·2PF6 at 688 nm): 194.19 ± 13.33 M⁻¹ cm⁻¹
photolytic yield (yield of free drug) [2]: 84.32±5.79%
Compound: COc1ccc2cc([C@H](C)C(=O)OCC3=C4C(C)=C(I)C(C)=[N+]4[B-](C)(C)n4c(C)c(I)c(C)c43)ccc2c1 [BODIPY-NPX, BODIPY-naproxen]

Source: patent US20250000979A1, “TRIPLET-TRIPLET ENERGY TRANSFER WITH LIGHT EXCITATION AT LONG WAVELENGTHS AND METHODS THEREOF” (priority 2023, published 2025)
